The campaign covered roughly 31,000 sequences. About 1,400 (4.5%) were called active.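 How the source made its calls: active means median seed-adjusted z-score above 1 or below -1; inactive means the rest.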 This is one part of the list.

The test is described as follows: Novel Modifiers of Survival Motor Neuron (SMN) Protein: Gene Identification via Genome-wide siRNA Screen.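 Further: luminescence tracks full-length SMN protein made from the SMN2 reporter.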 The conditions noted are these: HEK293T SMN2-luciferase reporter, siRNA knockdown, 72 h; actives lie on both sides. Summed up:
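Each of three siRNAs per gene is reverse-transfected (1 pmol) into reporter HEK293T cells whose luciferase output tracks SMN protein level. After 72 h culture, ONE-Glo luminescence is control-normalized, log10-transformed and MAD-standardized; Common Seed Analysis deprioritizes seed-driven hits.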
For orientation: In a reporter assay the amount or activity of a reporter protein is the signal.
For the sequence CCGUCCUAGUGCACAUUGATT against H6PD, the median seed-adjusted z-score is inactive: 0.069.

Turning to GACCUAUGCUCAGCAACUATT against ZNF695, the median seed-adjusted z-score is inactive: -0.358. Then GGAGGAAGUUUUGCAGGAATT against GNL3L, with inactive: 0.568. Consider GAGAGGAUUUUAUUGAACATT against HSPA12A, for which the median seed-adjusted z-score is inactive: 0.0319. For the sequence ACACGAAAGUCUGCAAAUATT against KLK11, the median seed-adjusted z-score was inactive: 0.0411. With GCUGCUUCAUGUACGGAAATT against AGBL5, the median seed-adjusted z-score is inactive: 0.0343.

Consider CAGCAAGCAUUAUAUCUCATT against KCNK16, for which the median seed-adjusted z-score was inactive: 0. Regarding AGAAGUCACUCAAUUGUUUTT against CRH, the median seed-adjusted z-score is inactive: 0.64. As for CCACUAUGGUGACCACGUUTT against S100A5, the median seed-adjusted z-score was inactive: 0.418.

For the sequence GGAGGACUCAUGUUCAACATT against DIMT1L, the median seed-adjusted z-score was inactive: 0.0156.

As to GGCUUCACAGGAACCUAUUTT against NOTCH3, the median seed-adjusted z-score was inactive: 0.395.

Consider AAAUCAAGGCGGCUUACUATT against DNAJC30, for which the median seed-adjusted z-score was inactive: 0.329. Then GGUAAAGAAUUCUCCGGAATT against FUS, with inactive: 0.92; and GAGCAUGGGUGGUAAAGUATT against ST13, with inactive: 0.286; and CAAUAUGAACACUUCCGAATT against MED31, with inactive: -0.267. CACUUCCUGCUGAACCUGATT against ADAMTS10: the median seed-adjusted z-score is inactive: 0.856. In the case of GUCUCCAGCUUAAACAGGATT against SIRT6, the median seed-adjusted z-score was inactive: 0.0126.

For the sequence GGAUAAGACAGUAACCCGATT against LRIG2, the median seed-adjusted z-score is inactive: 0.386. As for CGUUGCAAUGGAUAAGUUUTT against B4GALT1, the figure is inactive: 0. Then GCAUGUACACCAUCCCGCUTT against RNPEPL1, with inactive: 0; and CAACCAGAGCAGUUCGACUTT against ATAD3A, with inactive: -0.283. On to CCUGUGCAAUCAUAGGAGATT against ARL4A, for which the median seed-adjusted z-score was inactive: -0.572. As to UGACCCAGAUUAUCGCCGATT against POLR2I, the median seed-adjusted z-score was active: -3.27. As to GAACUGCGAUUGAAUAACATT against SLIT1, the median seed-adjusted z-score was inactive: 0.12.

CCCAAAUGAUAAUUCCAAATT against SLC45A3: the median seed-adjusted z-score was inactive: -0.0257. Regarding GCUGGUUUAUCCUCACAGATT against PSCD2, the median seed-adjusted z-score was inactive: -0.126. As for GAAUGUCUCUAAGGACGUATT against MYO18B, the figure is inactive: -0.597. In the case of UACCUGUGGUCAUUCCUUATT against HHATL, the median seed-adjusted z-score was inactive: 0.497. As to GGAAAGCGGCAAAAGUUAATT against RNF39, the median seed-adjusted z-score is inactive: 0.297.

Consider GAAACUGUUUGACAGCAUUTT against GNAI3, for which the median seed-adjusted z-score is inactive: 0.0656. CUAUCAUGCUAAAGCGUAUTT against RBM6: the median seed-adjusted z-score was inactive: 0.193. As for GGAUCGACCCAACCUAUGUTT against XYLT2, the median seed-adjusted z-score was inactive: 0.148. As to GCUUGAGAACUACCAGGUUTT against TAL2, the median seed-adjusted z-score is inactive: -0.395.

In the case of GGAUAACCUCAAUAACUAUTT against GRIN2A, the median seed-adjusted z-score is inactive: 0.025. Then GAUCCAACCAUUGAAGAUUTT against RRAS2, with inactive: -0.0229. For the sequence UCCUCUUCGGACUCAAUAATT against DRD2, the median seed-adjusted z-score was inactive: -0.0273.

Consider GGACAAGUGUAACCUUUAATT against SCUBE2, for which the median seed-adjusted z-score was inactive: 0.452. Consider CAUCAACCGUAAUAGCAUUTT against FBXL6, for which the median seed-adjusted z-score was inactive: -0.182. For GCCUAUCGAUUUGGUGAUATT against MEIS1, the median seed-adjusted z-score was inactive: 0. ACUUGAACUUAAUACAGCATT against ARID1B: the median seed-adjusted z-score was inactive: 0.108. Take GGAUAAUGGAGAACUCAGATT against NSFL1C: the median seed-adjusted z-score is inactive: -0.0899. Take AAGAAGGUCUGGUACGACATT against ZMAT5: the median seed-adjusted z-score is inactive: 0.292.

For the sequence GCAGUGACAUGUACGAGAATT against SIVA1, the median seed-adjusted z-score was inactive: 0.0451. Consider GAACAUGGACAUUAUCGUUTT against THNSL2, for which the median seed-adjusted z-score was inactive: 0.

CAGAUUACGUGGAACAGGATT against EFTUD2: the median seed-adjusted z-score was active: -1.25. Take CCACCUUCAAAUUUGAAGATT against ATP5J: the median seed-adjusted z-score is inactive: 0.242. For GCAUUUCCACUAAGUUUGATT against BCS1L, the median seed-adjusted z-score was inactive: 0.167. For the sequence CCACCUAAAAGGCAACCAATT against GALNT1, the median seed-adjusted z-score is inactive: -0.164. As for GGAAGGCUCCAAACGGAAATT against PBRM1, the figure is inactive: -0.118. In the case of GAACGAGUGAAGAAGUUAATT against SYNCRIP, the median seed-adjusted z-score was inactive: -0.192. Regarding CCAUCAAGCAAUACAAUUATT against CDKN3, the median seed-adjusted z-score is inactive: -0.03.

Turning to GAAAACCGAUGAACUUAGATT against DEK, the median seed-adjusted z-score was inactive: 0.374. With GGAGGACUGUAUCGCCUAUTT against MINK1, the median seed-adjusted z-score was inactive: -0.522. With GCACCUUCAGAAUCAGAGATT against SMYD3, the median seed-adjusted z-score is inactive: 0.1. For the sequence GGACCCAGCAUAAUGAUUATT against CEBPE, the median seed-adjusted z-score is inactive: -0.259. In the case of GGAUCAAGCUGCCCAUCUATT against AQP3, the median seed-adjusted z-score is inactive: -0.0863. Turning to GAGAUCAAGCUGUACAGUATT against SIM2, the median seed-adjusted z-score is inactive: -0.19. Regarding GAUUCUUUAGGGUAUAGCATT against ABHD7, the median seed-adjusted z-score is inactive: -0.301. For the sequence GAAUCUAGUCUGCAUGAAATT against ZNF192, the median seed-adjusted z-score is inactive: 0. As to GGAAUUAGGAGAAGGCAAATT against CYP7A1, the median seed-adjusted z-score is inactive: -0.0092. As for UGACGGUCCUACUACUGAATT against EFNB1, the figure is inactive: -0.448; as for CGCAUCAAAUGGUCUAAGATT against VCAN, inactive: 0.0927. For GACUGUGACUCGCACUGCATT against NTN3, the median seed-adjusted z-score was inactive: 0.298. For CAGUUAGCCGCGCACCUAATT against COL9A3, the median seed-adjusted z-score was inactive: 0.16. As to CUUCUUACUUAUUUGCGUATT against ROS1, the median seed-adjusted z-score is inactive: -0.0561.

For the sequence GCAACAGCAUUAUGACCCATT against COL10A1, the median seed-adjusted z-score was inactive: -0.0291.

Turning to GCAUCAUGACCGACGGUUATT against MPPED2, the median seed-adjusted z-score was inactive: 0.418.

As to CCAUGUAUGUGAGAGUGAUTT against RCAN1, the median seed-adjusted z-score was inactive: -0.000195. As for GGAUGGAUCCUGAAGGUGATT against SUB1, the figure is inactive: -0.571; as for GGUUAGGGCUUGACCCAAATT against HIBADH, inactive: 0.234.

With GAGUUUGAGCUGACGAAUATT against IQCH, the median seed-adjusted z-score was inactive: 0.

Consider GCAGCUACCAAGGAAAGGATT against SH3BP1, for which the median seed-adjusted z-score is inactive: -0.225. For the sequence CACUCUACGGCAACGUGUUTT against POU3F3, the median seed-adjusted z-score was inactive: -0.366. For the sequence CGGUUCCAGUGAAGAUUGATT against SRP68, the median seed-adjusted z-score was inactive: 0.721.

On to GGCCGAUGCUAAGGAGAUATT against POLR3H, for which the median seed-adjusted z-score is inactive: 0.

GGAUCCUGGUCAAAUAAAATT against ZDHHC14: the median seed-adjusted z-score was inactive: 0.312. In the case of GGUUAUGAGGUCACAGACATT against CACNB3, the median seed-adjusted z-score is inactive: 0.573.

Regarding AGAACGUGGUGAUCUGGUATT against ZNF653, the median seed-adjusted z-score is inactive: -0.202.

For CCAUAACUAUUGAAAACGATT against TRPC1, the median seed-adjusted z-score was inactive: -0.196.

Regarding CCUGGUUUUUAUAAGAGAATT against SERPINC1, the median seed-adjusted z-score was inactive: -0.0822. Consider ACACCAACGUAUGUCCAGATT against THSD4, for which the median seed-adjusted z-score is inactive: 0.0657. With UGGGAAGCAUGGAACCUCATT against ACBD7, the median seed-adjusted z-score is inactive: -0.542. As for GCAUCAUCAAAGACCGGAUTT against KCTD17, the median seed-adjusted z-score was inactive: 0.492. On to CCAUGGAUACCAACCGGAATT against TMPRSS2, for which the median seed-adjusted z-score was inactive: 0.433.

For the sequence GUGUCAUAGCUAAAACGCATT against RLF, the median seed-adjusted z-score is inactive: 0. Take GGAUAAUUUCUUUCGGUCUTT against MUTYH: the median seed-adjusted z-score was inactive: 0.024.

For GCAAUUAUAUCAUAACUUATT against FOXE1, the median seed-adjusted z-score was inactive: -0.316. Regarding GGACUACAGUUCAGAGGCATT against SOX15, the median seed-adjusted z-score was inactive: -0.376. In the case of GCUUCAUCAUCUUAGUGUATT against IL2RB, the median seed-adjusted z-score was inactive: 0.333. In the case of CCCGGACUCCUCCAAGAUATT against PPP1R14D, the median seed-adjusted z-score was inactive: 0. Take CCUCCUCACCAAACCCAUUTT against SLC5A1: the median seed-adjusted z-score was inactive: -0.812. As for GACAGACAAUGGAAACGAATT against FABP2, the figure is inactive: 0; as for GUAGGUGACUCGGUAAUAATT against TMEM171, inactive: 0.278. Regarding GGAUUUGAACAAGAUCGAUTT against TBC1D9, the median seed-adjusted z-score was inactive: -0.0473. Turning to GACUCAUUCUGAAGUCGAATT against MMP13, the median seed-adjusted z-score was inactive: 0.265. Consider GGAUCAGCUCAACCACAUUTT against MAPK3, for which the median seed-adjusted z-score was inactive: -0.573. As to CCGAAGUGGUUUUAGCUGATT against CAMK1D, the median seed-adjusted z-score is inactive: -0.0629.

Take CAAUGAGUAUGUGACGGAATT against UNC13A: the median seed-adjusted z-score is active: -2.1. As for CAAUAUCUAUUGUUUCGUATT against OPN3, the median seed-adjusted z-score was inactive: -0.916.

In the case of CUUCAUAUCUCUUUACGUATT against PIGW, the median seed-adjusted z-score was inactive: -0.242. As for GCACAGGUCUAAUUCGUCUTT against GRIK1, the median seed-adjusted z-score was inactive: -0.31. As for GGUAGAAGAUGAGACGGUUTT against EZH1, the median seed-adjusted z-score is inactive: 0.268.

For GAACCUCGUUUCGAAAUUUTT against RIOK2, the median seed-adjusted z-score was inactive: -0.16.

In the case of ACCUGACCCAUUUUACUAUTT against FXYD7, the median seed-adjusted z-score was inactive: -0.0312. Consider GAAAGUACUGUGAACAUGATT against LIMS1, for which the median seed-adjusted z-score is inactive: -0.313. As for GCACGACAGUGAAAACGCATT against ITPR1, the median seed-adjusted z-score was inactive: -0.0888. Regarding CAGCCUUCGUGACACUAGATT against DECR1, the median seed-adjusted z-score is inactive: 0.0567.

These data come from PubChem BioAssay AID1347426 (Functional Genomics Laboratory (NCATS/FGL), 2020).
